Results published in paper PMC12645137 (Current Neuropharmacology, 2025).

Assay: DPPH antioxidant assay
Format: physicochemical
Settings: 517 nm
Protocol: To evaluate the in-vitro antioxidant potential of the synthesized derivatives, a previously reported 1,1 Diphenyl, 2 Picrylhydrazyl (DPPH) assay was utilized. The DPPH solution was prepared by dissolving twenty-four mg DPPH in methanol (100 ml). Test sample solutions in various concentrations (62.50 to 1000 μg/mL) were also prepared. From each dilution, 1 ml sample solution was taken to which 1 ml solution of DPPH was added. The solution mixture was incubated at 23°C for 30 minutes in the dark and then subjected to a UV-visible spectrophotometer to note the absorbance at 517 nm. The absorbance values of all samples were taken in triplicate. Ascorbic acid served as positive control, while negative control only contained a solution of DPPH having no test samples. The % free radical scavenging potential of our compounds was determined by the given formula.
% free radical scavenging activity = [drawing 2] x100
X is the control absorbance, whereas X1 is the absorbance of the test sample.

Structure (SMILES) | Absorbance (DPPH) (62.5 µg/ml) | Absorbance (DPPH) (125 µg/ml) | Absorbance (DPPH) (250 µg/ml) | Absorbance (DPPH) (500 µg/ml) | Absorbance (DPPH) (1000 µg/ml)
COc1ccc(C/N=C(/C)[C@H]2CC[C@H]3[C@@H]4CCC5=CC(=O)CC[C@]5(C)[C@H]4CC[C@]23C)cc1 [AN1, (8S,9S,10R,13S,14S)-17-((Z)-1-((4-methoxybenzyl)imino)ethyl)-10,13-dimethyl-1,2,6,7,8,9,10,11,12,13,14,15,16,17-tetradecahydro-3H-cyc-lopenta[a]phenanthren-3-one] | 0.325 | 0.242 | 0.224 | 0.178 | 0.124
C/C(=N/Cc1ccc(C)cc1)[C@H]1CC[C@H]2[C@@H]3CCC4=CC(=O)CC[C@]4(C)[C@H]3CC[C@]12C [AN2, (8S,9S,10R,13S,14S)-17-((Z)-1-((4-methylbenzyl)imino)ethyl)-10,13-dimethyl-1,2,6,7,8,9,10,11,12,13,14,15,16,17-tetradecahydro-3H-cyc-lopenta[a]phenanthren-3-one] | 0.331 | 0.318 | 0.256 | 0.252 | 0.213
COc1ccc(C/N=C(/C)[C@H]2CC[C@H]3[C@@H]4CCC5=CC(=O)CC[C@]5(C)[C@H]4CC[C@]23C)cc1OC [AN3, (8S,9S,10R,13S,14S,17S)-17-((Z)-1-((3,4-dimethoxybenzyl)imino)ethyl)-10,13-dimethyl-1,2,6,7,8,9,10,11,12,13,14,15,16,17-tetradecahydro-3H-cyclo-penta[a]phenanthren-3-one] | 0.342 | 0.322 | 0.290 | 0.251 | 0.207
C/C(=N/Cc1ccc(Cl)cc1)[C@H]1CC[C@H]2[C@@H]3CCC4=CC(=O)CC[C@]4(C)[C@H]3CC[C@]12C [AN4, (8S,9S,10R,13S,14S,17S)-17-((Z)-1-((4-chlorobenzyl)imino)ethyl)-10,13-dimethyl-1,2,6,7,8,9,10,11,12,13,14,15,16,17-tetradecahydro-3H-cyclopenta [a]phenanthren-3-one] | 0.397 | 0.332 | 0.294 | 0.248 | 0.225
C/C(=N/Cc1ccccc1)[C@H]1CC[C@H]2[C@@H]3CCC4=CC(=O)CC[C@]4(C)[C@H]3CC[C@]12C [AN5, (8S,9S,10R,13S,14S)-17-((Z)-1-(benzylimino)ethyl)-10,13-dimethyl-1,2,6,7,8,9,10,11, 12,13,14,15,16,17-tetradecahydro-3H cyclopenta[a]phenan-thren-3-one] | 0.357 | 0.321 |  | 0.243 | 0.201
O=C1O[C@H]([C@@H](O)CO)C(O)=C1O [Ascorbic Acid, Ascorbic acid, reference compound] | 0.241 | 0.215 | 0.190 | 0.104 | 0.066
